Values from PubChem BioAssay AID1259405 (NCATS, 2018)

- Assay: 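Silenced genes that increase secreted GFP made by CHO cells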 (primary screen)
- System: Chinese hamster CHO-K1 ovary cells with stable secreted eGFP expression
- Knock-down reagent: single siRNA against mouse genes, 0.8 pmol siRNA per well (2 µl of 400 nM stock)
- Duration: 3 days
- Read-out: 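Percent of the per-plate non-targeting control median for intracellular GFP per well by laser scanning cytometry and for cell viability by ATP luminescence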
- Scale: GFP, % of control: higher = more GFP per well, higher productivity; viability (ATP), % of control: higher = more viable cells (more ATP)
- Hit rule: 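Called active when intracellular GFP, relative to negative control, is at or above 120%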
In all, the deposit lists about 50,000 reagents; shown is a part drawn at random. About 4,000 of them (8%) count as active. 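Mouse siRNA library applied to hamster cells; one well for each siRNA.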 A number with no mark means an inactive call. The numbers tell different reagents against one gene apart.

Gene	reagent	GFP, % of control	viability (ATP), % of control
Gna13	1	131 (active)	120
Gna13	2	102	90
Gna13	3	73	60.6
Ctsz	1	124 (active)	86
Ctsz	2	78.5	49.1
Ctsz	3	86.9	68.6
Hdac3	1	82.1	89.1
Hdac3	2	138 (active)	123
Enpp7	1	92	114
Enpp7	2	117	72.3
Rfx3	1	42.3	61.2
Rfx3	2	68.7	80.5
Rfx3	3	25.3	34.5
Rin3	1	94.4	71.2
Rin3	2	86.1	97.1
Rin3	3	45.8	44.4
Ogdh	1	45.1	24.9
Ogdh	2	84.7	62.7
Ogdh	3	81.1	88.7
Pcdhb2	1	37	46
Pcdhb2	2	109	88.2
Ltf	1	98	86.8
Ltf	2	52.9	42.2
Ltf	3	55.2	53.5
Rims1	1	65.6	44.8
Rims1	2	73.1	85.5
Rims1	3	37.3	49.1
Col3a1	1	66.1	80.3
Col3a1	2	90.3	67.9
Col3a1	3	58	37
Lck	1	45.5	29
Timm23	1	91.6	57
Timm23	2	53.1	60.2
Timm23	3	87.6	62.5
Ctbs	1	111	98.3
Ctbs	2	120	111
Ctbs	3	72.9	63.2
Ino80e	1	58.8	58.4
Ino80e	2	82.2	78.9
Ino80e	3	79	77.2
Pof1b	1	71.6	46
Pof1b	2	81.2	68.6
Pof1b	3	65	110
Prkd3	1	107	70
Taldo1	1	148 (active)	111
Taldo1	2	133 (active)	128
Taldo1	3	117	118
Rap1gds1	1	94.9	87
Rap1gds1	2	80.9	74.9
Rap1gds1	3	57.5	58.1
Or10ab5	1	97.1	91.1
Or10ab5	2	77.1	91.8
Or10ab5	3	77.9	68.1
Tmcc3	1	63.7	86.7
Tmcc3	2	78.2	71.2
Tmcc3	3	71.8	95.1
Polr2a	1	108	94.4
Polr2a	2	77.3	71.6
Glra4	1	71.3	80.5
Glra4	2	45.5	65.4
Glra4	3	46.3	61.7
Qsox1	1	108	86.6
Qsox1	2	53.6	73.2
Qsox1	3	66.1	58.8
Ube4a	1	14.9	56.3
Ube4a	2	96.4	99.6
Ube4a	3	64.8	63
Or8b35	1	79.7	70.9
Or8b35	2	90.5	37.5
Or8b35	3	88.9	111
Galnt7	1	139 (active)	97.4
Galnt7	2	107	71.4
Galnt7	3	112	90.9
Arg1	1	83.1	95.2
Arg1	2	147 (active)	133
Arg1	3	108	108
Arg1	4	75.4	90.7
Arg1	5	107	113
Arg1	6	149 (active)	88.1
Arf5	1	91.4	95
Arf5	2	60.7	97.9
Arf5	3	118	102
Bbox1	1	95.3	72.3
Bbox1	2	48.4	21.5
Bbox1	3	69.6	47.2
Etl4	1	30.2	40.7
Etl4	2	33.4	48.4
Etl4	3	79	69.9
Kpna4	1	12.3	10.5
Kpna4	2	82	73.5
Kpna4	3	103	85.3
Spp1	1	109	134
Spp1	2	96.1	90.8
Atp6v1c2	1	98.8	84.1
Atp6v1c2	2	54.9	84
Atp6v1c2	3	62.3	61.1
Or6c202	1	75.7	88.7
Or6c202	2	116	69.6
Or6c202	3	154 (active)	0.918
Ndufs2	1	99.7	80.7
Ndufs2	2	75.7	71
Ndufs2	3	106	75.3
Mapt	1	112	92.8
Mapt	2	53.3	47.9
Mapt	3	69.9	83.4
Tsc22d4	1	51.2	52.6
Tsc22d4	2	72.6	79.6

Part of the list above, set out differently:
Gene | reagent | GFP, % of control | viability (ATP), % of control
Kpna4 | 1 | 12.3 | 10.5
Kpna4 | 2 | 82 | 73.5
Kpna4 | 3 | 103 | 85.3
Spp1 | 1 | 109 | 134
Spp1 | 2 | 96.1 | 90.8
Atp6v1c2 | 1 | 98.8 | 84.1
Atp6v1c2 | 2 | 54.9 | 84
Atp6v1c2 | 3 | 62.3 | 61.1
Or6c202 | 1 | 75.7 | 88.7
Or6c202 | 2 | 116 | 69.6
